No constants are given. Whether binding was seen depends on the method and setting. In cells and extracts the contact can be indirect. Some results given as binding are weak or reduced against the parent protein; the word gives no strength. For some assays here: Where a sequence is shown, tags or fusion partners need not be part of it.
Key:
[1] = target: T1, alpha-tag-CD37 (human) (UniProt P11049); assay: co-IP; CD37KO BJAB cells co-transfected with FLAG-FATP1 and alpha-tag-CD37; lysis in 1% Brij 97, 25 mM Tris-HCl pH 7.5, 150 mM NaCl, 2 mM EDTA, 4 °C; pulldown of alpha-tagged CD37 on Alpha Selector beads; blot with anti-FLAG
T1 sequence: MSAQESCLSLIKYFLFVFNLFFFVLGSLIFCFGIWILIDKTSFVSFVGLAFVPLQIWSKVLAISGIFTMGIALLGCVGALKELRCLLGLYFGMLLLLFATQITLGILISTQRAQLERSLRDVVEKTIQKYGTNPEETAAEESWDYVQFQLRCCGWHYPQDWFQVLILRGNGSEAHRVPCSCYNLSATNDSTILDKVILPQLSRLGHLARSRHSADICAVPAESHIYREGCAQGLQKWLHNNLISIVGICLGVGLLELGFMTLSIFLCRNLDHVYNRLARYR

The chains behind the UniProt entries cited, without tags or fusion partners.
UniProt Q6PCB7: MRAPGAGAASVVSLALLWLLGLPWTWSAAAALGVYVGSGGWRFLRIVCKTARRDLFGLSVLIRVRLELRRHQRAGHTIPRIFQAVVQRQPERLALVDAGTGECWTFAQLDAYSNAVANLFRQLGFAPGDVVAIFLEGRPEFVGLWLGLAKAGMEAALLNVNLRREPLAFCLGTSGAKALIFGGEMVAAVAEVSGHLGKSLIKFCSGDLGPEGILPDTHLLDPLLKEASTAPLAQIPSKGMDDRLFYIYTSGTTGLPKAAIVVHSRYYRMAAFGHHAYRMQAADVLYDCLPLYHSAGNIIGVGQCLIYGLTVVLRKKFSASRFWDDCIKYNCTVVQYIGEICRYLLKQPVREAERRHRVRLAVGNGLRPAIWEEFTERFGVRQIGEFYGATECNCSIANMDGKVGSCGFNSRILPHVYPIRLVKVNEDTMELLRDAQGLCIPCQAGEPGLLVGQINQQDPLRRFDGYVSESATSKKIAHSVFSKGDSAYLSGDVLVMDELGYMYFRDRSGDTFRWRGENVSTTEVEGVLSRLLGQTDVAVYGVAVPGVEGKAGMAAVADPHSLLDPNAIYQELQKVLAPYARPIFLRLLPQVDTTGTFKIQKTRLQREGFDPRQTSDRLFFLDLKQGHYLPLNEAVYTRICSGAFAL

[2] = target: T2, tetraspanin CD37 (human (endogenous in BJAB)) (UniProt P11049); assay: proximity ligation; in situ PLA with FATP1 and CD37 antibodies on fixed WT BJAB lymphoma cells; isotype controls and CD37KO BJAB cells as negative controls
T2 sequence: T1 sequence

| binding [1] | binding [2] | Substance |
| --- | --- | --- |
| binds | – | FLAG-FATP1 (from UniProt Q6PCB7 1-646) |
| – | binds | fatty acid transporter protein 1 (FATP1) (from UniProt Q6PCB7 1-646) |

Reference: publication PMC9470561
